Laboratory results from the supplement of paper PMC7646827.
Structures can show the parent of a compound that is named as a salt. Repeats are few or missing, and single values can be far off.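 All cells are established human bladder cancer lines, one of them grown from a patient-derived xenograft. Viability was read by a luminescent ATP assay as percent inhibition versus vehicle over a seven-point dilution series; the paper calls scores above 59 very active, 30–59 active, 21–29 semi-active, 9–20 low active and below 9 inactive.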

Key:
Assay in all cases: drug sensitivity score DSS3 (score 0-100); higher = more sensitive; extreme values may be limits of the assay
Settings in all cases: culture: 3D, ultra-low attachment; treatment time: 5 days
5637 = test system: 5637
BC8149 = test system: BC8149
J82 = test system: J82
SCaBER = test system: SCaBER
SW780 = test system: SW780
T-24 = test system: T-24
TCCSUP = test system: TCCSUP
UM-UC-12 = test system: UM-UC-12
UM-UC-14 = test system: UM-UC-14
UM-UC-15 = test system: UM-UC-15
UM-UC-17 = test system: UM-UC-17
UM-UC-18 = test system: UM-UC-18
UM-UC-1 = test system: UM-UC-1
UM-UC-3 = test system: UM-UC-3
UM-UC-5 = test system: UM-UC-5
UM-UC-6 = test system: UM-UC-6
UM-UC-9 = test system: UM-UC-9

Structure (SMILES)	drug sensitivity score DSS3 5637	drug sensitivity score DSS3 (BC8149)	drug sensitivity score DSS3 (J82)	drug sensitivity score DSS3 (SCaBER)	drug sensitivity score DSS3 (SW780)	drug sensitivity score DSS3 (T-24)	drug sensitivity score DSS3 (TCCSUP)	drug sensitivity score DSS3 (UM-UC-12)	drug sensitivity score DSS3 (UM-UC-14)	drug sensitivity score DSS3 (UM-UC-15)	drug sensitivity score DSS3 (UM-UC-17)	drug sensitivity score DSS3 (UM-UC-18)	drug sensitivity score DSS3 (UM-UC-1)	drug sensitivity score DSS3 (UM-UC-3)	drug sensitivity score DSS3 (UM-UC-5)	drug sensitivity score DSS3 (UM-UC-6)	drug sensitivity score DSS3 (UM-UC-9)
C#Cc1cccc(Nc2ncnc3cc(OC)c(OCCCCCCC(=O)NO)cc23)c1 [CUDC-101] (max dose 10000 nM)	6.15	2.08	0.873	1.77	0	1.27	2.67	3.75	0.336	2.46	0.889	2.54	0	1.27	0	0	0.616
C#Cc1cccc(Nc2ncnc3cc4c(cc23)OCCOCCOCCO4)c1 [icotinib] (max dose 10000 nM)	9.16	4.99	5.03	4.97	4.54	0	4.39	16.3	2.46	0	1.8	1.98	0	0	0	0.0196	0.126
Cc1cc(C)c(S(=O)(=O)n2cc(C)cc2C)c(C)c1 [HJC0350] (max dose 10000 nM)	0	7.16	0	0	0	0	0	0	0	0	0	0.0695	0	0	0	0	18.4
CCN(CC)CCCC(C)Nc1ccnc2cc(Cl)ccc12 (centres undefined) [Chloroquine Phosphate] (max dose 10000 nM)	0	0	0	0	0	0	0	0	0	0	0	0	0	0	0	0	0
NC(=O)Nc1cc(-c2cccc(F)c2)sc1C(=O)N[C@H]1CCCNC1 [AZD7762] (max dose 10000 nM)	16.6	10.7	1.23	6.81	0	0	31.8	1.88	6.46	0	3.78	15.1	15.5	4.41	7.7	15	0.249
O=C(O)CC[C@H]1CC[C@@](c2cc(F)ccc2F)(S(=O)(=O)c2ccc(Cl)cc2)CC1 [MK-0752] (max dose 10000 nM)	0	0	0	13.9	0	0	0	0	3.06	0	0	0	0	9.32	0.235	0	0
C/C=C1\NC(=O)[C@H]2CSSCC/C=C/[C@H](CC(=O)N[C@H](C(C)C)C(=O)N2)OC(=O)[C@H](C(C)C)NC1=O [Romidepsin] (max dose 10000 nM)	91.3	90.1	60.6	80.9	43.6	76.5	93.7	85.2	77.8	88.7	95.3	79.3	84	78.1	83	79.2	81.4
O=C(O)Cc1cccc(OCCCN(Cc2cccc(C(F)(F)F)c2Cl)CC(c2ccccc2)c2ccccc2)c1 [GW3965 HCl] (max dose 10000 nM)	0.404	5.11	0	1.04	0	0	11.1	6.35	1.81	0	0.455	1.55	0.0775	4.13	0	0.599	0
O=S(=O)(CC1CS1)c1ccc(Oc2ccccc2)cc1 (centres undefined) [SB-3CT] (max dose 10000 nM)	0	0.122	0	0	0	0	0	0	0	0.128	0	0	0	0	0	0	0
O=C1NC(=O)/C(=C/c2cccc(C(F)(F)F)c2)S1 [SMI-4a] (max dose 10000 nM)	0.292	0.516	0	0.459	0	0	0.555	0	0	0.285	0.29	0.569	0	0	0	0.0637	0
CNC(=O)c1ccc(N2C(=S)N(c3cnc(C#N)c(C(F)(F)F)c3)C(=O)C23CCC3)cc1F [apalutamide] (max dose 10000 nM)	0	0	0	0	0	0	0	0	0	0	0	0.209	0	0	0	0	0
CCN(CC)CCCCNc1ncc2cc(-c3cc(OC)cc(OC)c3)c(NC(=O)NC(C)(C)C)nc2n1 (max dose 10000 nM)	4.76	7.57	1.46	2.77	0.913	1.08	17.4	1.73	7.6	0	3.24	2.5	4.14	0.964	0.543	3.43	0

Whole records as entered above. Values in the order: drug sensitivity score DSS3 5637 | drug sensitivity score DSS3 (BC8149) | drug sensitivity score DSS3 (J82) | drug sensitivity score DSS3 (SCaBER) | drug sensitivity score DSS3 (SW780) | drug sensitivity score DSS3 (T-24) | drug sensitivity score DSS3 (TCCSUP) | drug sensitivity score DSS3 (UM-UC-12) | drug sensitivity score DSS3 (UM-UC-14) | drug sensitivity score DSS3 (UM-UC-15) | drug sensitivity score DSS3 (UM-UC-17) | drug sensitivity score DSS3 (UM-UC-18) | drug sensitivity score DSS3 (UM-UC-1) | drug sensitivity score DSS3 (UM-UC-3) | drug sensitivity score DSS3 (UM-UC-5) | drug sensitivity score DSS3 (UM-UC-6) | drug sensitivity score DSS3 (UM-UC-9)
C#Cc1cccc(Nc2ncnc3cc4c(cc23)OCCOCCOCCO4)c1 [icotinib] (max dose 10000 nM) reads 9.16 | 4.99 | 5.03 | 4.97 | 4.54 | 0 | 4.39 | 16.3 | 2.46 | 0 | 1.8 | 1.98 | 0 | 0 | 0 | 0.0196 | 0.126
CNC(=O)c1ccc(N2C(=S)N(c3cnc(C#N)c(C(F)(F)F)c3)C(=O)C23CCC3)cc1F [apalutamide] (max dose 10000 nM) reads 0 | 0 | 0 | 0 | 0 | 0 | 0 | 0 | 0 | 0 | 0 | 0.209 | 0 | 0 | 0 | 0 | 0
